In test [1] the target is T1, amphiphysin 1 (Amph1) (rat (endogenous in adult rat brain)) (UniProt O08838).
T1 sequence: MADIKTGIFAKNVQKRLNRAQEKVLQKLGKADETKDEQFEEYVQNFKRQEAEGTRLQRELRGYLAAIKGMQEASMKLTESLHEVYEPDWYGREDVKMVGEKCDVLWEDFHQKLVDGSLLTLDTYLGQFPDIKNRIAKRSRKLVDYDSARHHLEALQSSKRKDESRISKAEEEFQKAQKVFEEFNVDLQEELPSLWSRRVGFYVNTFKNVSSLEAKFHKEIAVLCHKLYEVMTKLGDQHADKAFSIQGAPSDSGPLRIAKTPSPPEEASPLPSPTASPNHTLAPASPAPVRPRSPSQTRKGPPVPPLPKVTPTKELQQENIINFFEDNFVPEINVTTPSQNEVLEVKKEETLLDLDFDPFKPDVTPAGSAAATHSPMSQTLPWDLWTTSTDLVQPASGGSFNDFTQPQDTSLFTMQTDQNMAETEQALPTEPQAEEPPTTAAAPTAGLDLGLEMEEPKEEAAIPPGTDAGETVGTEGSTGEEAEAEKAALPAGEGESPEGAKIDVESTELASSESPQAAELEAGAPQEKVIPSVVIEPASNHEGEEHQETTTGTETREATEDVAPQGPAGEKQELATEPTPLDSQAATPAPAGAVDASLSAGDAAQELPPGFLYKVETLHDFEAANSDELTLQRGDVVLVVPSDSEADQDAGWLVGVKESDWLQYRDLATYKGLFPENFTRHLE
The test is described as follows: co-IP.

The target in test [2] is Cyclin-dependent kinase-like 5 (CDKL5) (rat (endogenous in adult rat brain)). The test is described as follows: co-IP.

This is an account of results in paper doi:10.1101/2022.03.15.484308.

No constants are given. Whether binding was seen depends on the method and setting. Binding seen in cells or lysates may run through a third protein. A result given as binding can be weak or reduced; the word gives no strength.

As to “Cyclin-dependent kinase-like 5 (CDKL5) (rat (endogenous in adult rat brain))”, the binding entry in test [1] is “binds”.

B1: amphiphysin 1 (Amph1) (protein, UniProt O08838 1-683)
chain: MADIKTGIFAKNVQKRLNRAQEKVLQKLGKADETKDEQFEEYVQNFKRQEAEGTRLQRELRGYLAAIKGMQEASMKLTESLHEVYEPDWYGREDVKMVGEKCDVLWEDFHQKLVDGSLLTLDTYLGQFPDIKNRIAKRSRKLVDYDSARHHLEALQSSKRKDESRISKAEEEFQKAQKVFEEFNVDLQEELPSLWSRRVGFYVNTFKNVSSLEAKFHKEIAVLCHKLYEVMTKLGDQHADKAFSIQGAPSDSGPLRIAKTPSPPEEASPLPSPTASPNHTLAPASPAPVRPRSPSQTRKGPPVPPLPKVTPTKELQQENIINFFEDNFVPEINVTTPSQNEVLEVKKEETLLDLDFDPFKPDVTPAGSAAATHSPMSQTLPWDLWTTSTDLVQPASGGSFNDFTQPQDTSLFTMQTDQNMAETEQALPTEPQAEEPPTTAAAPTAGLDLGLEMEEPKEEAAIPPGTDAGETVGTEGSTGEEAEAEKAALPAGEGESPEGAKIDVESTELASSESPQAAELEAGAPQEKVIPSVVIEPASNHEGEEHQETTTGTETREATEDVAPQGPAGEKQELATEPTPLDSQAATPAPAGAVDASLSAGDAAQELPPGFLYKVETLHDFEAANSDELTLQRGDVVLVVPSDSEADQDAGWLVGVKESDWLQYRDLATYKGLFPENFTRHLE
In the case of B1, the binding result in test [2] is given as “binds”.
